Where cells or extracts were used, other partners may take part. For some of these results: No signal at the amounts used counts as a negative. For some of these results: Tags and fusion partners may be left off the protein sequences shown. For some of these results: For at least one entry, the source does not settle the construct or the ends of the probe.

Chains of the proteins cited; added tags and fusions are not shown. Residues count along the entry.
UniProt P15976, 151-251: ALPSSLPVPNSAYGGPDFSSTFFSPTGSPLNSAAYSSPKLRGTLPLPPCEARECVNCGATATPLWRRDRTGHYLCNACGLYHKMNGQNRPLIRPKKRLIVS

The target of data set [1] is T1, FLAG-GATA1 (1-150), activation domain (UniProt P15976).
T1 sequence (looked up): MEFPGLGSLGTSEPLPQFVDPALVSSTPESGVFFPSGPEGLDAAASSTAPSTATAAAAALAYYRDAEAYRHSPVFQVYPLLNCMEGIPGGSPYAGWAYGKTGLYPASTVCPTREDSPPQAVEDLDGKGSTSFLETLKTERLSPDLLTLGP
Nature of the data set: EMSA. The settings on record: LightShift Chemiluminescent EMSA Kit (Pierce) per manufacturer, nuclear extract, 5% native PAGE; pH and binding temperature not stated; protein in an extract; residues 1-150; protein details: FLAG; label: 5'-biotin. On the technique in general: Mobility shift assays separate free from complexed probe on a gel.

Data set [2] addresses FLAG-GATA1 (151-251), N-terminal zinc finger (UniProt P15976). Nature of the data set: EMSA. To be noted: LightShift Chemiluminescent EMSA Kit (Pierce) per manufacturer, nuclear extract, 5% native PAGE; pH and binding temperature not stated; protein in an extract; residues 151-251; protein details: FLAG; label: 5'-biotin.
Data set [3] addresses T2, FLAG-GATA1 (252-413), C-terminal zinc finger (UniProt P15976).
T2 sequence (looked up): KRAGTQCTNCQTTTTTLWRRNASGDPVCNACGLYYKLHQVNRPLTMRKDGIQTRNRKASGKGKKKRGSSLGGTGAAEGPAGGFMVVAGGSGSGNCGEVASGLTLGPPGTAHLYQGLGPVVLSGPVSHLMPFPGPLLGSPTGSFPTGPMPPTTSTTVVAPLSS
Nature of the data set: EMSA. To be noted: LightShift Chemiluminescent EMSA Kit (Pierce) per manufacturer, nuclear extract, 5% native PAGE; pH and binding temperature not stated; protein in an extract; residues 252-413; protein details: FLAG; label: 5'-biotin.

The target of data set [4] is FLAG-GATA1 (UniProt P15976). The data set is described as follows: EMSA. The settings on record: LightShift Chemiluminescent EMSA Kit (Pierce) per manufacturer, nuclear extract, 5% native PAGE; pH and binding temperature not stated; protein in an extract; residues 1-413; protein details: FLAG; label: 5'-biotin.
Data set [5] has as its target FLAG-GATA1 (UniProt P15976). The data set is described as follows: competition with a labelled probe. The settings on record: 100-fold molar excess unlabeled GATC over biotin-GATC probe; LightShift Chemiluminescent EMSA Kit (Pierce) per manufacturer, nuclear extract, 5% native PAGE; pH and binding temperature not stated; protein in an extract; residues 1-413; protein details: FLAG.

Turning to “TGGTAGCGGGGAGGATCGCGGAGGCTTGGG (double strand) [GATC probe (VEGF promoter)]”, the binding result is reported as “no binding” in data set [1], “no binding” in data set [2], “binds” in data set [3] and “binds” in the data set with FLAG-GATA1 [4].
Turning to “TGGTAGCGGGGAGTCGAGCGGAGGCTTGGG (double strand) [GATC-M probe (mutated GATC site)]”, the binding result in the data set with FLAG-GATA1 [4] is “no binding”.
Still for that read-out and setting: with “CTGGGCTTGGGCTGATAGAAGCCTTGGCCC (double strand) [GATA probe (VEGF promoter)]” the entry was “no binding”.
As to “TGGTAGCGGGGAGGATCGCGGAGGCTTGGG (double strand) [unlabeled GATC competitor]”, in the data set with FLAG-GATA1 [5], the binding result is given as “binds”.

Source of the values: paper PMC4891089.
